From PMC4124494
These are yes or no findings as the source states them, for the method shown. In cells and extracts the contact can be indirect.

Sequences of proteins named here, by UniProt entry; tags and fusion partners are left off.
UniProt Q13200: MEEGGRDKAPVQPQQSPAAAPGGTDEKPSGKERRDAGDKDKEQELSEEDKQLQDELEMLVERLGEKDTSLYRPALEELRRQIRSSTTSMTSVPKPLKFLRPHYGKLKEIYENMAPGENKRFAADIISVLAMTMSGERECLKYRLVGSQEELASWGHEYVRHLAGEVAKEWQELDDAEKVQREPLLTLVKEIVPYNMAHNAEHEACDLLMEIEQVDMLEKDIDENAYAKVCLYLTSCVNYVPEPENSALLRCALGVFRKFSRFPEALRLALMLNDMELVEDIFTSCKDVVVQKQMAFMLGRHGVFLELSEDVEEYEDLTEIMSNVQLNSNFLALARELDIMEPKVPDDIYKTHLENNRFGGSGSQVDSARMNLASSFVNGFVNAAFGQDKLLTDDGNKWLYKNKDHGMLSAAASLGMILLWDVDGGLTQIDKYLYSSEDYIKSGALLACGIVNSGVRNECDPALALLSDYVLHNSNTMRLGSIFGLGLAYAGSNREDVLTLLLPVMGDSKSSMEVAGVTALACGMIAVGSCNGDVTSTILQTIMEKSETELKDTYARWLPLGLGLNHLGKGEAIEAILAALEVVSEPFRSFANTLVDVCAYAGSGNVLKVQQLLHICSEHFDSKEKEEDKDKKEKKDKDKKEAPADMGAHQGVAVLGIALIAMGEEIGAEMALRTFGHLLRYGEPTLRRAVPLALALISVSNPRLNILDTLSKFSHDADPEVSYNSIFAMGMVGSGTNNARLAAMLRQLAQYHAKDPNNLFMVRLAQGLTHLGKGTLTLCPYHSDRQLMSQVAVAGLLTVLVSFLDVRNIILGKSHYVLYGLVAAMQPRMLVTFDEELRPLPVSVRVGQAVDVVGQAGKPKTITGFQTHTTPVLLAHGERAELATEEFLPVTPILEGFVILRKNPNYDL

Biological target: T1, endogenous ASPL (human (endogenous in HeLa or MelJuSo)) (UniProt Q9BZE9)
T1 sequence: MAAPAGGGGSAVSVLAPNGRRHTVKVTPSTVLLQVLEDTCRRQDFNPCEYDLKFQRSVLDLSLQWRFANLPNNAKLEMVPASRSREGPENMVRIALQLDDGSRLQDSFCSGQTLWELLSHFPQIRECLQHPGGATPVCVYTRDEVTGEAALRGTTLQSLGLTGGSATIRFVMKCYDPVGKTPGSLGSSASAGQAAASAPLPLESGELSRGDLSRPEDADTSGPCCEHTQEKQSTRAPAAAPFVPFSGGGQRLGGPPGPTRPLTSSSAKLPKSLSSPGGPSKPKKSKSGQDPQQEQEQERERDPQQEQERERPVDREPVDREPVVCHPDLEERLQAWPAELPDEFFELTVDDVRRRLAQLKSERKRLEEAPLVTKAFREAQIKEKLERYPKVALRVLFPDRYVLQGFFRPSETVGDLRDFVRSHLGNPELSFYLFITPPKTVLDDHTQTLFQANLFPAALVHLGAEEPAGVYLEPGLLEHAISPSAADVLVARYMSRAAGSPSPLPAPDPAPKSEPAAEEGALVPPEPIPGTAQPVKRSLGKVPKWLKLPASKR
Experiment: co-IP; endogenous proteins; antibody to ASPL and Protein A Sepharose, beads only as control; MelJuSo cell lysates, buffer not told for these blots; blots for Rpn1 and the 20S α-subunits

With “Rpn1 subunit of the 19S proteasome complex, endogenous (from UniProt Q13200 1-908)” as the substance, how does the binding read?
The binding was “no binding”.
